{"source": "patent US20250051409A1", "about": "“MODULATORS OF PHOSPHATIDYLSERlNE DECARBOXYLASE AND USE THEREOF” (THE NATIONAL INSTITUTE FOR BIOTECHNOLOGY IN THE NEGEV LTD., priority 2021, published 2025)", "key": {"[1]": {"target": "T1, phosphatidylserine decarboxylase (PSD) (Homo sapiens, UniProt Q9UG56)", "T1 construct": "Purified recombinant protein (full length) of human phosphatidylserine decarboxylase (PSD); His tag (N); purchased Acris-OriGene; host or cells: E. coli", "T1 sequence (Q9UG56 53-409)": "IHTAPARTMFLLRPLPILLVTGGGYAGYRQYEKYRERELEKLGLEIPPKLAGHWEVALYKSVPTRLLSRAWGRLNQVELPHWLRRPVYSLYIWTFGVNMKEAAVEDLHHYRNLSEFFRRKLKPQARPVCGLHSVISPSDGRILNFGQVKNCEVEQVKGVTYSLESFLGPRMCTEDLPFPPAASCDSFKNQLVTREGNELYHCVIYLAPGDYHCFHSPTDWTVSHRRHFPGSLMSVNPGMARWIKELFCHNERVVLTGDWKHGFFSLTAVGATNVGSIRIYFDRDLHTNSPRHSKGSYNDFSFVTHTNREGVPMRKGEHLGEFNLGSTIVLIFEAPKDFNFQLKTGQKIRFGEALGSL", "test": "MST binding of synthetic peptides to fluorescently-labelled purified PSD", "conditions": "PSD 0.25 μM, peptide 1-10 μM, 30 min at 37° C."}, "[2]": {"target": "T1, phosphatidylserine decarboxylase (PSD)", "test": "Peptide array blotted with PSD preincubated with peptide", "assay_type": "binding", "conditions": "PSD 0.15 μM, peptide 20 μM", "description": "(A) Schematic presentation of peptide array and detection of their interaction with SMAC. (B) Glass-bound peptide array consisting of overlapping peptides derived from […] SMAC-interacting proteins were incubated overnight with purified SMAC (0.3 μM) and then blotted with anti-SMAC antibodies (1:1000), followed by incubation with HRP-conjugated anti-mouse IgG and detection using a chemiluminescence kit. Dark spots represent binding of SMAC to peptides derived from SMAC-interacting proteins. (C) SMAC (0.3 μM) was incubated with purified PSD (0.4 μM) and blotted as in (B). The peptide spots where PSD prevented interaction with SMAC are circled. (D) Schematic presentation of peptide array and detection of their interaction with PSD. (E) Peptide array was blotted with purified PSD (0.15 μM) and then with anti-PSD antibodies as in (B). […]\nCustomized 768-peptide sequences derived from 11 SMAC-interacting proteins produced by INTAVIS Peptide Services (GmbH & Co. KG, Tubingen, Germany) were arrayed on a glass slide. […] Following extensive slide washing with Tris-buffered saline containing 0.05% Tween-20, SMAC or PSD binding was detected using anti-SMAC or anti-PSD antibodies and HRP-conjugated anti-rabbit or anti-mouse IgG as a secondary antibody. […]"}}, "note": "At least one peptide structure holds a part that was inferred or is arguable (an end, a ring closure or a residue). Ends that are not written are not given here."}
{"sequence": "ALSTSSPIPSVPQSQAQPQTGSGAS [2F3]", "values": [{"measurement": "Kd", "setting": "[1]", "value": 3000, "unit": "nM"}, {"measurement": "PSD interaction with array peptides after pre-incubation of PSD with the peptide", "setting": "[2]", "value": "eliminate PSD interaction with most peptides"}]}
